Publication doi:10.1101/2020.01.31.928408

Tests used:
Assay in all cases: co-IP
[1] = target: HA-tagged Gli2 ΔA1 (P1-6A) (mouse)
[2] = target: HA-tagged Gli2 ΔA2 (P1-6A) (mouse)
[3] = target: HA-tagged Gli2 ΔN (P1-6A) (mouse)

B1: FLAG-SuFu (protein, UniProt Q9Z0P7 1-484)
chain: MAELRPSVAPGPAAPPASGPSAPPAFASLFPPGLHAIYGECRRLYPDQPNPLQVTAIVKYWLGGPDPLDYVSMYRNMGSPSANIPEHWHYISFGLSDLYGDNRVHEFTGTDGPSGFGFELTFRLKRETGESAPPTWPAELMQGLARYVFQSENTFCSGDHVSWHSPLDNSESRIQHMLLTEDPQMQPVRTPFGVVTFLQIVGVCTEELHSAQQWNGQGILELLRTVPIAGGPWLITDMRRGETIFEIDPHLQERVDKGIETDGSNLSGVSAKCAWDDLSRPPEDEEDSRSICLGTQPRRLSGKDTEQIRETLRRGLEINSKPVLPPINSQRQNGLTHDRAPSRKDSLGSDSSTAIIPHELIRTRQLESVHLKFNQESGALIPLCLRGRLLHGRHFTYKSITGDMAITFVSTGVEGAFATEEHPYAAHGPWLQILLTEEFVEKMLEDLEDLTSPEEFKLPKEYSWPEKKLKVSILPDVVFDSPLH
**Q.** For B1, which binding [1] is on record?
**A.** binds

B2: Xpo7 (overexpressed in HEK293T) (protein, UniProt Q9EPK7 1-1087)
chain: MADHVQSLAQLENLCKQLYETTDTTTRLQAEKALVEFTNSPDCLSKCQLLLERGSSSYSQLLAATCLTKLVSRTNNPLPLEQRIDIRNYVLNYLATRPKLATFVTQALIQLYARITKLGWFDCQKDDYVFRNAITDVTRFLQDSVEYCIIGVTILSQLTNEINQADTTHPLTKHRKIASSFRDSSLFDIFTLSCNLLKQASGKNLNLNDESQHGLLMQLLKLTHNCLNFDFIGTSTDESSDDLCTVQIPTSWRSAFLDSSTLQLFFDLYHSIPPSFSPLVLSCLVQIASVRRSLFNNAERAKFLSHLVDGVKRILENPQSLSDPNNYHEFCRLLARLKSNYQLGELVKVENYPDVIRLIANFTVTSLQHWEFAPNSVHYLLSLWQRLAASVPYVKATEPHMLETYTPEVTKAYITSRLESVHIILRDGLEDPLEDTGLVQQQLDQLSTIGRCEYEKTCALLVQLFDQSAQSYQELLQSASASPMDIAVQEGRLTWLVYIIGAVIGGRVSFASTDEQDAMDGELVCRVLQLMNLTDSRLAQAGNEKLELAMLSFFEQFRKIYIGDQVQKSSKLYRRLSEVLGLNDETMVLSVFIGKVITNLKYWGRCEPITSKTLQLLNDLSIGYSSVRKLVKLSAVQFMLNNHTSEHFSFLGINNQSNLTDMRCRTTFYTALGRLLMVDLGEDEDQYEQFMLPLTAAFEAVAQMFSTNSFNEQEAKRTLVGLVRDLRGIAFAFNAKTSFMMLFEWIYPSYMPILQRAIELWYHDPACTTPVLKLMAELVHNRSQRLQFDVSSPNGILLFRETSKMITMYGNRILTLGEVPKDQVYALKLKGISICFSMLKAALSGSYVNFGVFRLYGDDALENALQTFIKLLLSIPHSDLLDYPKLSQSYYSLLEVLTQDHMNFIASLEPHVIMYILSSISEGLTALDTMVCTGCCSCLDHIVTYLFKQLSRSTKKRTTPLNRESDCFLHIMQQHPAMIQQMLSTVLNIIIFEDCRNQWSMSRPLLGLILLNEKYFSDLRNSIVNSQPPEKQQAMHLCFENLMEGIERNLLTKNRDRFTQNLSAFRREVNDSMKNSTYGVNSNDMMS
**Q.** What does the source list for B2?
**A.** binding [2]: binds; binding [3]: binds weakly; binding [1]: binds weakly

No constants are given. Whether binding was seen depends on the method and setting. In cells and extracts the contact can be indirect. Binding calls can cover weak binding; strength is not graded here. For some of these results: Tags and fused reporters may be left off the sequences shown.
